Measurements reported in the supplement of paper PMC10849652.
The list shows a part of the results.

The chains behind the UniProt entries cited, without tags or fusion partners. Where a name states a change or a piece, a line headed by the entry shows the natural chain unless it says otherwise.
UniProt Q86YS3: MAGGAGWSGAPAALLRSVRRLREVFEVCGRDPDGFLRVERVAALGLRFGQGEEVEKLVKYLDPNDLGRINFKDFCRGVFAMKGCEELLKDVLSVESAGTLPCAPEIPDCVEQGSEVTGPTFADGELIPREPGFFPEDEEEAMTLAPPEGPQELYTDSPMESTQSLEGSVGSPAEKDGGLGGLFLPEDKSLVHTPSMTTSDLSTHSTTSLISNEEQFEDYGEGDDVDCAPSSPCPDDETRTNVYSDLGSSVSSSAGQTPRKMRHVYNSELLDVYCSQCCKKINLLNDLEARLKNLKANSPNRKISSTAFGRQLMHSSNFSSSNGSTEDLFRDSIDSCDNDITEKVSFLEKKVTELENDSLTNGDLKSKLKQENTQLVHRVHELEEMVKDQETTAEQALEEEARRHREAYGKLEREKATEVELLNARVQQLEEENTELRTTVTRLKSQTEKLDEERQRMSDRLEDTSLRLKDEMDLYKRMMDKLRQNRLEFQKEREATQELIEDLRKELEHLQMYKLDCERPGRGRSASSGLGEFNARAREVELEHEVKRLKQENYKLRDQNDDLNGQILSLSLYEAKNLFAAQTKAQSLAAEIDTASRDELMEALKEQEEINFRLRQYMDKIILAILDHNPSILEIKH
UniProt Q9UJ41, whole entry, looked up: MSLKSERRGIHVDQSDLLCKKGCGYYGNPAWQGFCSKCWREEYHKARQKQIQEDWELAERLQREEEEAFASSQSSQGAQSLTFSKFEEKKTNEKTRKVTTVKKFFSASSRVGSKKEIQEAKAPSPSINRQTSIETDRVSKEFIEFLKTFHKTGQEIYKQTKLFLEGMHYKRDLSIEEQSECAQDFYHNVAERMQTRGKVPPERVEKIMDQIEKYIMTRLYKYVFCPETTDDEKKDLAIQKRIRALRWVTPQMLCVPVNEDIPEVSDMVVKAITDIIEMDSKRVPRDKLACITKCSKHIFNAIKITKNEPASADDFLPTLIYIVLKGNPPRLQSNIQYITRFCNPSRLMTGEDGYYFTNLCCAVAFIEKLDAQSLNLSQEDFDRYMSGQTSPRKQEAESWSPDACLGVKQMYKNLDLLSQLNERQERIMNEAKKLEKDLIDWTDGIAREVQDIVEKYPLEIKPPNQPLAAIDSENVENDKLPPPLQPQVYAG
UniProt Q9NX57: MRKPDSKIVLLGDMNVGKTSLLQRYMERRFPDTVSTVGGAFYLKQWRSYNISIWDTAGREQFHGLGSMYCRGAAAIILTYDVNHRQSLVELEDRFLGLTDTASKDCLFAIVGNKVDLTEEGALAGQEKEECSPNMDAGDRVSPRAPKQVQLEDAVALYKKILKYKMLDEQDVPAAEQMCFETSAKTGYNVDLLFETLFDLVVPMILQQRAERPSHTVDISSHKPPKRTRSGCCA
UniProt P20338: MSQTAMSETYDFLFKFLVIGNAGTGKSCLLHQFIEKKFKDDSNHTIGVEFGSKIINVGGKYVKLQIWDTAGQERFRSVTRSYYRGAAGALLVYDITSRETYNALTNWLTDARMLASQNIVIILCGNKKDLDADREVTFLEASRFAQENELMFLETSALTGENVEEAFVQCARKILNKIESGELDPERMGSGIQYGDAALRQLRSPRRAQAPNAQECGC
UniProt Q9BXR0: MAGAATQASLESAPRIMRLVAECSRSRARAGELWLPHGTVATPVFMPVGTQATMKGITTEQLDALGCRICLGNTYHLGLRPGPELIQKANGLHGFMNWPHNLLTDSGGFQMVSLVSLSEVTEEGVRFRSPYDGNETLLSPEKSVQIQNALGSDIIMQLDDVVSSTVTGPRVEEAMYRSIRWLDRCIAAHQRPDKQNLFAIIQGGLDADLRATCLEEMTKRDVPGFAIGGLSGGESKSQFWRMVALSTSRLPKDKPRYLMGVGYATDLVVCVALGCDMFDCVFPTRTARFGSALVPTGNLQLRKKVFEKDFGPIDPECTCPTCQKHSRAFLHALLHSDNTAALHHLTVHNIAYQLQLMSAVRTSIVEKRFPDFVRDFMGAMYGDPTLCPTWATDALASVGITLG
UniProt Q9ULZ3, whole entry, looked up: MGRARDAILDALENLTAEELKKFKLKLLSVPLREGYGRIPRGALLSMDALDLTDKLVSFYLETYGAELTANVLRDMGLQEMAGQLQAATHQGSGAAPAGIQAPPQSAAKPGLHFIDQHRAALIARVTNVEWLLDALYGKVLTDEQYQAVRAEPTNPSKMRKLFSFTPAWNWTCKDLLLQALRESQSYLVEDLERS
UniProt Q7Z5J4: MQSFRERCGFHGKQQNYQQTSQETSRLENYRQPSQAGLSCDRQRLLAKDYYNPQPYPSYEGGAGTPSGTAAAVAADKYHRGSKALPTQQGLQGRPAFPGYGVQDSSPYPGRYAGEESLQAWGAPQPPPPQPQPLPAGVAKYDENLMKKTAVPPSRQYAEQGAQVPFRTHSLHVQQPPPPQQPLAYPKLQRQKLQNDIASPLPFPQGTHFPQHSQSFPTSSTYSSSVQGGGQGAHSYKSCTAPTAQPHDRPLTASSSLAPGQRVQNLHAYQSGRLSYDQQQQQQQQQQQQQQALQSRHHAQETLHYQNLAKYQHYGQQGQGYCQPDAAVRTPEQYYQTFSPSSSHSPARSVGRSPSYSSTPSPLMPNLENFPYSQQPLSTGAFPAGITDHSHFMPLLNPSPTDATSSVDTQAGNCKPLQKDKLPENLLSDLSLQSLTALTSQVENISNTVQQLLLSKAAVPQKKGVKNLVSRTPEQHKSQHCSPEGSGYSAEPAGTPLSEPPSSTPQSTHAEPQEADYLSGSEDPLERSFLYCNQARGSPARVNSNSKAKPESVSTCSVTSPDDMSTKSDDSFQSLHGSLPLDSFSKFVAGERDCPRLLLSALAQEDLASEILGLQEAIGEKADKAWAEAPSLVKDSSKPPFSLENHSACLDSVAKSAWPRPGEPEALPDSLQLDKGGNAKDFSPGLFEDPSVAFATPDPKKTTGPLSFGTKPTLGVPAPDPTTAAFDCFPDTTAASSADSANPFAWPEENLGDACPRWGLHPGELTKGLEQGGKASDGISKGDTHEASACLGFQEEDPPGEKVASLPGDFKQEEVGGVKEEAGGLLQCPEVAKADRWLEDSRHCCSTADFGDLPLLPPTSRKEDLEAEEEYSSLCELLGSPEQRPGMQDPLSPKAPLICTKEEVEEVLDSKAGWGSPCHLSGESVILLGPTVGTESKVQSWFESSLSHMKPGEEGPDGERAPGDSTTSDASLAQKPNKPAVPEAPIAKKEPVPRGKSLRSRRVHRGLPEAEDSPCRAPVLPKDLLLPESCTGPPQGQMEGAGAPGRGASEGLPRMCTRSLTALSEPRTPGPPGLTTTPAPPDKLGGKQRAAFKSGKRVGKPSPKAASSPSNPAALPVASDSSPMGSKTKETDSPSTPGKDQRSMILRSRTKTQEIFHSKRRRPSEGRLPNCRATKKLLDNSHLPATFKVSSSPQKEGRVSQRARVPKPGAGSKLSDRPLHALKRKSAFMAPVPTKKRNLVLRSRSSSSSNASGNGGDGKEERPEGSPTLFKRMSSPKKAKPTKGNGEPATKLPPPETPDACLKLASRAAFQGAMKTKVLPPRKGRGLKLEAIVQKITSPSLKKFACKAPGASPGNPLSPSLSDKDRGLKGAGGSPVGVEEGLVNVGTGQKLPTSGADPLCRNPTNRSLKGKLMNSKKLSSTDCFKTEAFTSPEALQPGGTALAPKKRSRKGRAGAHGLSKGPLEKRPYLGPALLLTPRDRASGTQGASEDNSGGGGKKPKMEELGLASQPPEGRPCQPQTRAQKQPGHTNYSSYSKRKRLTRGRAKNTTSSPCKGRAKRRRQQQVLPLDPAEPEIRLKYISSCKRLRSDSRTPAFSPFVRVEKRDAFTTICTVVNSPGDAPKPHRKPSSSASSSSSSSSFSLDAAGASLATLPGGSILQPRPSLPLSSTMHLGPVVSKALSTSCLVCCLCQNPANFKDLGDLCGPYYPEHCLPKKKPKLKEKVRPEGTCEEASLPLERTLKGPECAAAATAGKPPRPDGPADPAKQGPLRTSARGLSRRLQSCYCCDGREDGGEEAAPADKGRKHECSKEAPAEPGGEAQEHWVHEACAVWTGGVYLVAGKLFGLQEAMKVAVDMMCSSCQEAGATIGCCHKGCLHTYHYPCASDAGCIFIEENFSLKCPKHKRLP
UniProt Q9HD47: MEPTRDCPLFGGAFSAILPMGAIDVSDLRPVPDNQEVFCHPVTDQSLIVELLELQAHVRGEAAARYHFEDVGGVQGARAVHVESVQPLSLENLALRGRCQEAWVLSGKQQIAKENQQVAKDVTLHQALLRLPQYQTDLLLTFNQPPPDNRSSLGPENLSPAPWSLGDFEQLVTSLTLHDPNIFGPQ
UniProt Q86X27: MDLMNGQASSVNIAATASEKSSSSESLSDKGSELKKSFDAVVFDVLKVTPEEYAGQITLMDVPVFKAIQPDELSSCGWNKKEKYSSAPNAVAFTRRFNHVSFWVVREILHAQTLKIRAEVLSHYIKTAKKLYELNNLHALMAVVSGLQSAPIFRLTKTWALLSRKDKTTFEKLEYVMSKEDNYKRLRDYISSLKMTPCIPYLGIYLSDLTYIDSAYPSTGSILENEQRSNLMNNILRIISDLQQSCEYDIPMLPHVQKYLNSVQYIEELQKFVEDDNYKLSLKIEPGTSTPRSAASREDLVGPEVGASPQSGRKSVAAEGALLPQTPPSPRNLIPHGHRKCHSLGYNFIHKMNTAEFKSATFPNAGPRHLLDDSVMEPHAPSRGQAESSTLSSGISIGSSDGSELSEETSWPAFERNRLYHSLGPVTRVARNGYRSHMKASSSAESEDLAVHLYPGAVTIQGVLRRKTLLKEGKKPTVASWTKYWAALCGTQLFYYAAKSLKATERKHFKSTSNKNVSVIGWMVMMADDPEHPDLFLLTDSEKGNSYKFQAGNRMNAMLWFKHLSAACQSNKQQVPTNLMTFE
UniProt O00194: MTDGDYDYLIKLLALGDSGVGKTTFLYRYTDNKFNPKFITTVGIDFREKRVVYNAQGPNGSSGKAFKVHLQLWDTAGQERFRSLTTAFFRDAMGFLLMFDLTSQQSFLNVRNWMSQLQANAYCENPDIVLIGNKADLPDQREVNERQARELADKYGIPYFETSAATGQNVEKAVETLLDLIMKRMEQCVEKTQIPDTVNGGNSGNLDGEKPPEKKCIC
UniProt Q96B01: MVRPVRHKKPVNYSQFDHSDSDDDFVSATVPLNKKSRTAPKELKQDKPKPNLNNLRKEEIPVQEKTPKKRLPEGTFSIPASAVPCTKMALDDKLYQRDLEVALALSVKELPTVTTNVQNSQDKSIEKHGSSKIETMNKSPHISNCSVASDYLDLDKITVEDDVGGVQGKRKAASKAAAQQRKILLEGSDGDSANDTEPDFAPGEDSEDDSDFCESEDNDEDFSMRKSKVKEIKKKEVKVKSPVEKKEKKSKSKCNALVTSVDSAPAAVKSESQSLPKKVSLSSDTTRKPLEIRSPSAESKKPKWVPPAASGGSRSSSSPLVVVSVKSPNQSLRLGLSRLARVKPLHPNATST
UniProt Q15771: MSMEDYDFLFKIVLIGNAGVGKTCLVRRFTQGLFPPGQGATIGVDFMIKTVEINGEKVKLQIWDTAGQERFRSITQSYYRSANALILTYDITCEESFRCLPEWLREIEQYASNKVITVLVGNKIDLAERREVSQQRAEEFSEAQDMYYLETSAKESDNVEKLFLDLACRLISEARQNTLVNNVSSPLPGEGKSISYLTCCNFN
UniProt P54725: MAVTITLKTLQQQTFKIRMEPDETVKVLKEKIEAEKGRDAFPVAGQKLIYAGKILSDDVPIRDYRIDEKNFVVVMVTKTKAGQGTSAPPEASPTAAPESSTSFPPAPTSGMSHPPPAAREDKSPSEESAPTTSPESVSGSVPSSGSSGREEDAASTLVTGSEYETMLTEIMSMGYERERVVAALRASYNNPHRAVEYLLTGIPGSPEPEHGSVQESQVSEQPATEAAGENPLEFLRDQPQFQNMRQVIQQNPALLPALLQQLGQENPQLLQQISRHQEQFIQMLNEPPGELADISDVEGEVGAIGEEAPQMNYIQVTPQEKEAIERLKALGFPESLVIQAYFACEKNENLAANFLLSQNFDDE
UniProt P52306: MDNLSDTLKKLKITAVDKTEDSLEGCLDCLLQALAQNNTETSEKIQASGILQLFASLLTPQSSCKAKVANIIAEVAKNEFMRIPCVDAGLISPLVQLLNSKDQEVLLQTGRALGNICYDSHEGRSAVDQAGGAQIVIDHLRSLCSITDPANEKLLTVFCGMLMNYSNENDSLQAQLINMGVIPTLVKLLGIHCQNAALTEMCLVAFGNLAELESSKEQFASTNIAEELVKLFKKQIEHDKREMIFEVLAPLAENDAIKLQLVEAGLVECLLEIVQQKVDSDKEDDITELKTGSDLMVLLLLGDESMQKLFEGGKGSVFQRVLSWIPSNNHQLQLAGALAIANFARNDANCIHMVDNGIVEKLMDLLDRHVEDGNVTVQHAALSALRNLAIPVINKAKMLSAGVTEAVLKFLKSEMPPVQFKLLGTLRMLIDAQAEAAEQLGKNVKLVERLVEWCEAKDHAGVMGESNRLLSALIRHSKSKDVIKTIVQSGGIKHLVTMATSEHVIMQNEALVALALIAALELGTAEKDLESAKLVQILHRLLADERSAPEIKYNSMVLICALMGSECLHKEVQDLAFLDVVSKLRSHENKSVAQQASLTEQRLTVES

What was measured:
Assay in all cases: log2 fold change, soluble protein after heating vs DMSO (PISA); higher = thermal stabilisation; K562 lysate, 10 uM; active = over 0.2 and 3.5 SD of the protein, either way, in both replicates (recomputed)
vemurafenib = compound: CCCS(=O)(=O)Nc1ccc(F)c(C(=O)c2c[nH]c3ncc(-c4ccc(Cl)cc4)cc23)c1F [vemurafenib]
How it was run: (§1)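 A 30 min treatment with 10 μM compound was applied to crude K562 extract at 1 mg/mL protein in PBS pH 7.4 with 1 mM MgCl2. Heating for 3 min spanned 48°C-58°C, after which aliquots were pooled, adjusted to 0.5% NP-40 at 4°C and spun at 21,000xg for 90 min. TMTpro 16plex LC-MS/MS of the supernatant, with channel sums equalised, gave values recorded as log-two fold change in thermal stability against solvent controls, from duplicates.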

[1] = compound: CCCS(=O)(=O)Nc1ccc(F)c(C(=O)c2c[nH]c3ncc(Cl)cc23)c1F
How it was run: as §1

barasertib = compound: CCN(CCCOc1ccc2c(Nc3cc(CC(=O)Nc4cccc(F)c4)[nH]n3)ncnc2c1)CCOP(=O)(O)O [barasertib]
How it was run: as §1

[2] = compound: CC[C@@H]1C(=O)N(C)c2cnc(Nc3ccc(C(=O)NC4CCN(C)CC4)cc3OC)nc2N1C1CCCC1
How it was run: as §1

volasertib = compound: CC[C@@H]1C(=O)N(C)c2cnc(Nc3ccc(C(=O)N[C@H]4CC[C@H](N5CCN(CC6CC6)CC5)CC4)cc3OC)nc2N1C(C)C [volasertib]
How it was run: as §1

[3] = compound: CCn1c(C(=O)N(C2CC2)C2CC2)cc2c3c(ncn3C)c(Nc3cc(C)n(C)n3)nc21
How it was run: as §1

[4] = compound: CCn1cc(-c2ccnc3[nH]c(-c4cccc(CN(C)C)c4)cc23)c(-c2ccc(NC(=O)N(C)C)cc2)n1
How it was run: as §1

[5] = compound: CN1CCC(CNc2ccc3ncc(-c4cccc(OC(F)(F)F)c4)n3n2)CC1
How it was run: as §1

saracatinib = compound: CN1CCN(CCOc2cc(OC3CCOCC3)c3c(Nc4c(Cl)ccc5c4OCO5)ncnc3c2)CC1 [saracatinib]
How it was run: as §1

sotrastaurin = compound: CN1CCN(c2nc(C3=C(c4c[nH]c5ccccc45)C(=O)NC3=O)c3ccccc3n2)CC1 [sotrastaurin]
How it was run: as §1

Measured: log2 fold change

RAD51 (UniProt Q06609)
inactive: vemurafenib 0.061 | [1] 0.023 | barasertib 0.172 | [2] 0.007 | volasertib -0.046 | [3] -0.022 | [4] 0.129 | [5] 0.026 | saracatinib 0.056 | sotrastaurin -0.025

RAF1 isoform 2 (UniProt P04049)
active: vemurafenib 0.739
inactive: [1] -0.142 | barasertib 0.068 | [2] -0.159 | volasertib -0.083 | [3] -0.029 | [4] -0.028 | [5] -0.037 | saracatinib -0.014 | sotrastaurin -0.041

RAB11FIP4 (UniProt Q86YS3)
inactive: vemurafenib 0.158 | [1] 0.13 | barasertib -0.016 | [2] -0.066 | volasertib -0.078 | [3] 0.037 | saracatinib 0.025

RABGEF1 isoform 3 (UniProt Q9UJ41)
inactive: vemurafenib -0.014 | [1] 0 | barasertib -0.023 | [2] -0.037 | volasertib 0.004 | [3] -0.014 | [4] -0.06 | [5] -0.023 | saracatinib -0.062 | sotrastaurin 0

Pulled one by one from the entries so far, 2 records:
RAB11FIP4 (UniProt Q86YS3)
inactive: vemurafenib 0.158 | [1] 0.13 | barasertib -0.016 | [2] -0.066 | volasertib -0.078 | [3] 0.037 | saracatinib 0.025

RAF1 isoform 2 (UniProt P04049)
active: vemurafenib 0.739
inactive: [1] -0.142 | barasertib 0.068 | [2] -0.159 | volasertib -0.083 | [3] -0.029 | [4] -0.028 | [5] -0.037 | saracatinib -0.014 | sotrastaurin -0.041

Following part

RANBP3 isoform 2 (UniProt Q9H6Z4)
inactive: vemurafenib 0.017 | [1] -0.01 | barasertib -0.096 | [2] 0.134 | volasertib -0.011 | [3] -0.076 | saracatinib -0.087 | sotrastaurin -0.054

RAB5IF isoform 5 (UniProt Q9BUV8)
active: [4] 0.928
inactive: vemurafenib -0.075 | [1] 0.129 | barasertib 0.142 | [2] -0.03 | volasertib -0.398 | [5] -0.362 | saracatinib 0.009

RAB20 (UniProt Q9NX57)
inactive: vemurafenib 0.064 | [1] 0.167 | barasertib -0.171 | [2] 0.007 | volasertib -0.025 | [3] -0.068 | saracatinib -0.016 | sotrastaurin -0.001

RAB4A (UniProt P20338)
inactive: vemurafenib -0.043 | [1] 0.034 | barasertib 0.047 | [2] -0.009 | volasertib 0.022 | [3] 0.044 | [4] 0.116 | [5] 0.018 | saracatinib 0.002 | sotrastaurin 0.002

RABL3 (UniProt Q5HYI8)
inactive: vemurafenib 0.043 | [1] 0.024 | barasertib 0.033 | [2] -0.072 | volasertib -0.045 | [3] 0.632 | [4] -0.045 | [5] -0.032 | saracatinib 0.018 | sotrastaurin 0.069

QTRT1 (UniProt Q9BXR0)
inactive: vemurafenib 0.029 | [1] 0.067 | barasertib -0.028 | [2] 0.035 | volasertib -0.012 | [3] -0.048 | [4] -0.095 | [5] 0.061 | saracatinib 0.025 | sotrastaurin -0.005

RAB6B (UniProt Q9NRW1)
inactive: vemurafenib -0.035 | [1] -0.069 | barasertib 0.081 | [2] -0.021 | volasertib 0.021 | [3] 0.026 | [4] -0.014 | [5] 0.017 | saracatinib 0.009 | sotrastaurin 0.033

RAP1B (UniProt F5GZG1)
inactive: vemurafenib 0.025 | [1] -0.069 | barasertib 0.043 | [2] -0.013 | volasertib -0.015 | [4] 0.471 | [5] 0.041 | saracatinib 0.094 | sotrastaurin -0.038

RALGAPB isoform 3 (UniProt Q86X10)
inactive: barasertib -0.005 | [2] -0.076 | [4] -0.139 | [5] 0.004 | saracatinib -0.343

R3HDM4 (UniProt Q96D70)
inactive: vemurafenib 0.166 | [2] 0.009 | [3] -0.064 | [4] 0.093 | [5] 0.078 | saracatinib -0.039 | sotrastaurin 0.067

PYCARD isoform 2 (UniProt Q9ULZ3)
inactive: [1] 0.039 | barasertib 0.316 | volasertib 0.025 | [3] 0.071 | [4] -0.082 | [5] -0.025 | sotrastaurin -0.054

RAI1 (UniProt Q7Z5J4)
inactive: [2] -0.111 | sotrastaurin 0.041

RANGRF (UniProt Q9HD47)
inactive: [1] 0.054 | volasertib -0.052 | [3] -0.056 | saracatinib 0.06 | sotrastaurin 0.117

RAB29 (UniProt O14966)
inactive: [3] -0.097 | [4] 0.195 | [5] 0.001 | saracatinib -0.124

RAC3 (UniProt P60763)
inactive: vemurafenib -0.002 | [2] 0.041 | [4] -0.044 | [5] -0.092 | sotrastaurin -0.128

RALGPS2 (UniProt Q86X27)
inactive: vemurafenib 0.08 | barasertib 0.048 | [2] 0.119 | [3] -0.107 | [4] 0.454 | [5] -0.022 | sotrastaurin -0.026

RAD54B (UniProt Q9Y620)
inactive: vemurafenib 0.228 | [2] 0.135 | [3] -0.101 | saracatinib 0.106 | sotrastaurin 0.016

QSER1, A0A3B3IRW6
inactive: vemurafenib -0.042 | [1] 0.045 | [2] -0.044 | volasertib -0.028 | [3] 0.043 | saracatinib -0.036 | sotrastaurin -0.014

RAB11FIP4 isoform 2 (UniProt Q86YS3)
inactive: [3] -0.304

QSOX1 (UniProt O00391)
inactive: [2] 0.097 | [4] 0.087 | [5] -0.011 | saracatinib -0.154 | sotrastaurin 0.136

RAB27B (UniProt O00194)
inactive: vemurafenib -0.04 | [1] 0.071 | [2] -0.154 | volasertib -0.017 | [4] 0.002 | [5] -0.034 | saracatinib 0.05

RAD51AP1 (UniProt Q96B01)
inactive: [1] 0.04 | barasertib -0.074 | [2] 0.076 | volasertib 0.086 | [3] -0.118 | [4] -0.057 | [5] 0.1 | saracatinib 0.07 | sotrastaurin 0.007

QARS1, A0A0U1RR66
inactive: [1] -0.257 | volasertib -0.07

RAB30 (UniProt Q15771)
inactive: vemurafenib -0.04 | barasertib 0.009 | [2] -0.127 | [4] -0.074 | [5] 0.129 | saracatinib 0.016 | sotrastaurin 0.075

R3HDM2 (UniProt B5MCU0)
inactive: [2] 0.031 | [3] -0.071 | sotrastaurin -0.023

PYHIN1 (UniProt Q6K0P9)
inactive: [1] -0.006 | volasertib -0.011 | [3] -0.239 | saracatinib -0.05 | sotrastaurin 0.018

RALGAPA2 (UniProt Q2PPJ7)
inactive: [1] 0.011 | volasertib -0.145 | [4] -0.087 | [5] -0.121 | sotrastaurin 0.423

RAD51B (UniProt O15315)
inactive: vemurafenib -0.117 | barasertib 0.164 | [2] 0.084 | [3] -0.04 | [4] 0.004 | [5] -0.141 | saracatinib 0.002 | sotrastaurin -0.014

RAD23A isoform 3 (UniProt P54725)
inactive: [1] 0.054 | volasertib 0.148 | [3] -0.237 | [4] 0.045 | [5] 0.054

RAP1GDS1 isoform 4 (UniProt P52306)
inactive: [1] -0.057 | barasertib -0.056 | volasertib 0.047 | [4] -0.058 | [5] 0.089

RAD17 (UniProt O75943)
inactive: vemurafenib -0.091 | barasertib 0.131 | [2] 0.017 | [3] 0.07 | [4] -0.214 | [5] -0.027 | saracatinib 0.042 | sotrastaurin -0.004

PYGO2 (UniProt Q9BRQ0)
inactive: barasertib 0.036 | [2] -0.106 | [3] 0 | [4] -0.044 | [5] 0.042 | saracatinib 0.07 | sotrastaurin -0.022

RACK1 (UniProt D6RF23)
inactive: vemurafenib 0.076 | barasertib 0.078 | [2] -0.201

RAB11FIP5, A0A1B0GTL5
inactive: [1] 0.044 | volasertib 0.142 | [4] -0.197 | [5] 0.113 | sotrastaurin 0.24
